Measurements reported in PubChem BioAssay AID1159584 (Peter MacCallum Cancer Centre, 2016)
Shown is one part, drawn at random, of about 18,000 deposited reagents. Not given: the amount of reagent, the time to read-out.

Aim: 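Knock-downs that harm CDH1-null cells more than parental MCF10A cells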 (primary screen)
System: human MCF10A breast epithelial cells, parental and CDH1-null
Knock-down reagent: siRNA against human genes
Detection: 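Cell viability by CellTiter-Glo ATP luminescence, each line scaled to the mean of mock wells across plates, then CDH1-null over parental ratio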
Scale: CDH1-null / parental viability ratio: higher = CDH1-null cells survive relatively better than parental; CDH1-null viability vs mock: higher = more viable CDH1-null cells; parental viability vs mock: higher = more viable parental cells

target,CDH1-null / parental viability ratio,CDH1-null viability vs mock (fraction of mock),parental viability vs mock (fraction of mock)
DHH (desert hedgehog signaling molecule),1.14,0.8,0.7
UXT (ubiquitously expressed prefoldin like chaperone),1.39,0.92,0.66
RHOBTB3 (Rho related BTB domain containing 3),0.9,0.74,0.82
"ANKRD20A5P (ankyrin repeat domain 20 family member A5, pseudogene)",1.08,0.71,0.66
PRXL2C (peroxiredoxin like 2C),1.14,1.25,1.1
ADGRF5 (adhesion G protein-coupled receptor F5),1.59,1.02,0.64
CCM2 (CCM2 scaffold protein),0.85,0.56,0.66
FLT3LG (fms related receptor tyrosine kinase 3 ligand),0.89,0.84,0.94
UTS2B (urotensin 2B),0.79,0.52,0.66
CD38 (CD38 molecule),0.9,0.97,1.08
EFNB1 (ephrin B1),0.92,0.55,0.6
BDKRB2 (bradykinin receptor B2),1.36,1.06,0.78
EXT1 (exostosin glycosyltransferase 1),1.03,1.01,0.98
ARHGAP25 (Rho GTPase activating protein 25),0.74,0.62,0.84
SYT6 (synaptotagmin 6),1.09,0.96,0.88
GSR (glutathione-disulfide reductase),1.2,0.98,0.82
AXDND1 (axonemal dynein light chain domain containing 1),0.93,1.02,1.1
SPC24 (SPC24 component of NDC80 kinetochore complex),0.97,0.68,0.7
CDRT15 (CMT1A duplicated region transcript 15),0.79,0.54,0.68
BAHD1 (bromo adjacent homology domain containing 1),0.96,0.91,0.95
EIF4EBP1,1.18,1.27,1.08
ABCA8 (ATP binding cassette subfamily A member 8),1.43,0.6,0.42
ALDH5A1 (aldehyde dehydrogenase 5 family member A1),1.37,0.96,0.7
CHRNA6 (cholinergic receptor nicotinic alpha 6 subunit),1.33,1.05,0.79
TMEM11 (transmembrane protein 11),0.74,0.58,0.78
IRF2 (interferon regulatory factor 2),1,0.86,0.86
IGF1R (insulin like growth factor 1 receptor),0.77,0.48,0.62
ASPM (assembly factor for spindle microtubules),1.04,1.08,1.04
IRX2-DT (IRX2 divergent transcript),0.78,0.76,0.97
NDUFB8 (NADH:ubiquinone oxidoreductase subunit B8),1.06,0.87,0.82
MOCS2 (molybdenum cofactor synthesis 2),0.87,0.78,0.9
RAD18 (RAD18 E3 ubiquitin protein ligase),0.96,0.94,0.98
DRC12 (dynein regulatory complex subunit 12 homolog),1.05,0.86,0.82
LYRM2 (LYR motif containing 2),1,0.78,0.78
CCDC82 (coiled-coil domain containing 82),0.71,0.54,0.76
MGST2 (microsomal glutathione S-transferase 2),1,0.68,0.68
TIPARP (TCDD inducible poly(ADP-ribose) polymerase),0.99,0.69,0.7
ACSM1 (acyl-CoA synthetase medium chain family member 1),1.14,0.32,0.28
H2AB3 (H2A.B variant histone 3),1.14,0.66,0.58
PHC3 (polyhomeotic homolog 3),1.58,0.6,0.38
SLC26A3,1.01,0.87,0.86
NDUFA5 (NADH:ubiquinone oxidoreductase subunit A5),1.2,0.6,0.5
OR2Y1 (olfactory receptor family 2 subfamily Y member 1),1,0.86,0.86
SFXN4 (sideroflexin 4),1.02,0.88,0.86
"FGD2 (FYVE, RhoGEF and PH domain containing 2)",1.11,0.8,0.72
DNAJB12 (DnaJ heat shock protein family (Hsp40) member B12),1.21,0.98,0.81
BKGD (beta-keto-L-gulonate decarboxylase),0.95,0.89,0.94
RALY (RALY heterogeneous nuclear ribonucleoprotein),1.05,0.88,0.84
"PIKFYVE (phosphoinositide kinase, FYVE-type zinc finger containing)",0.87,0.8,0.92
SCRT1 (scratch family transcriptional repressor 1),2.19,0.7,0.32
KCNMB3,1.16,0.88,0.76
IQSEC3 (IQ motif and Sec7 domain ArfGEF 3),1.09,0.87,0.8
OR52N4 (olfactory receptor family 52 subfamily N member 4),1.38,0.98,0.71
MRPL21 (mitochondrial ribosomal protein L21),1.08,0.96,0.89
LSG1 (large 60S subunit nuclear export GTPase 1),0.99,0.76,0.77
TGFA (transforming growth factor alpha),1.05,0.98,0.93
AGAP7P,0.64,0.18,0.28
UTP18 (UTP18 small subunit processome component),1.34,0.51,0.38
RHBDL1 (rhomboid like 1),1.03,0.68,0.66
DAZ2 (deleted in azoospermia 2),0.84,0.7,0.83
RPS15 (ribosomal protein S15),1.25,0.4,0.32
ZFP82 (ZFP82 zinc finger protein),1.07,0.74,0.69
RPL11 (ribosomal protein L11),1.44,0.46,0.32
GTF2IRD2B (GTF2I repeat domain containing 2B),1.2,0.48,0.4
CEP89 (centrosomal protein 89),0.66,0.49,0.74
H4C6 (H4 clustered histone 6),1.04,0.8,0.77
"PARS2 (prolyl-tRNA synthetase 2, mitochondrial)",0.95,0.76,0.8
RNF168 (ring finger protein 168),1,0.98,0.98

Sorted by “CDH1-null / parental viability ratio” (lowest first): 9 of the entries above
target,CDH1-null / parental viability ratio,CDH1-null viability vs mock (fraction of mock),parental viability vs mock (fraction of mock)
CCDC82 (coiled-coil domain containing 82),0.71,0.54,0.76
MOCS2 (molybdenum cofactor synthesis 2),0.87,0.78,0.9
RAD18 (RAD18 E3 ubiquitin protein ligase),0.96,0.94,0.98
TIPARP (TCDD inducible poly(ADP-ribose) polymerase),0.99,0.69,0.7
LYRM2 (LYR motif containing 2),1,0.78,0.78
MGST2 (microsomal glutathione S-transferase 2),1,0.68,0.68
DRC12 (dynein regulatory complex subunit 12 homolog),1.05,0.86,0.82
NDUFB8 (NADH:ubiquinone oxidoreductase subunit B8),1.06,0.87,0.82
ACSM1 (acyl-CoA synthetase medium chain family member 1),1.14,0.32,0.28
